The list is a part of this screen's results and no random one: its compounds were picked by chemical class. Not every dose and run of a compound is shown. T/C gives the treated animals as a percentage of the vehicle group. Some entries give survivors of the animals treated and no T/C: the source files T/C as zero there, which appears to mark a toxic dose or a test without result, not a measured value. Counts of survivors are from the toxicity check (mostly the fifth day) where no day follows; animals may have died later. Schedule codes are those of the source, read here as Q, the interval in days (D) or hours (H), X, the number of doses. Signs of the kind (2×) say how often a value occurs here. Some doses were run more than once; their values stand side by side, smallest first. Where survival is the endpoint, this PubChem deposit counts one and a half times the control or more as active, and values a quarter to a half above the control carry no call in these data; other NCI protocols may use other cut-offs. Some T/C values carry the count of animals alive at the toxicity check (mostly the fifth day); where neither a count nor a note follows, no animal had died by that day.
Test system: L1210 leukemia ip in BDF1 mice, survival T/C
Assay: NCI In Vivo Anticancer Drug Screen. Data for tumor model L1210 Leukemia (intraperitoneal) in B6D2F1 (BDF1) mice
Conditions: T/C endpoint: mean survival time, higher T/C = longer survival
[1] = dose: 100.0 mg/kg/injection, schedule: Q01DX001 (ip), vehicle: carboxymethylcellulose (CMC)
[2] = dose: 200.0 mg/kg/injection, schedule: Q01DX001 (ip), vehicle: carboxymethylcellulose (CMC)
[3] = dose: 400.0 mg/kg/injection, schedule: Q01DX001 (ip), vehicle: carboxymethylcellulose (CMC)

Structure (SMILES): NC(Cc1ccc(N(CCF)CCCl)cc1)C(=O)O (stereo not drawn)
- T/C (dose: 0.5 mg/kg/injection, schedule: Q01DX009 (ip), vehicle: carboxymethylcellulose (CMC)): 107 % of control
- T/C (dose: 1.0 mg/kg/injection, schedule: Q01DX009 (ip), vehicle: carboxymethylcellulose (CMC)): 106 % of control
- T/C (dose: 1.9 mg/kg/injection, schedule: Q01DX009 (ip), vehicle: carboxymethylcellulose (CMC)): 111 % of control
- T/C (dose: 2.0 mg/kg/injection, schedule: Q01DX009 (ip), vehicle: carboxymethylcellulose (CMC)): 112 % of control
- T/C (dose: 3.8 mg/kg/injection, schedule: Q01DX009 (ip), vehicle: carboxymethylcellulose (CMC)): 118 and 126 % of control
- T/C (dose: 7.5 mg/kg/injection, schedule: Q01DX009 (ip), vehicle: carboxymethylcellulose (CMC)): 135 and 142 % of control
- T/C (dose: 12.5 mg/kg/injection, schedule: Q01DX001 (ip), vehicle: carboxymethylcellulose (CMC)): 120 % of control
- T/C (dose: 15.0 mg/kg/injection, schedule: Q01DX009 (ip), vehicle: carboxymethylcellulose (CMC)): 127 and 170 % of control
- T/C (dose: 25.0 mg/kg/injection, schedule: Q01DX001 (ip), vehicle: carboxymethylcellulose (CMC)): 123 and 126 % of control
- T/C (dose: 30.0 mg/kg/injection, schedule: Q01DX009 (ip), vehicle: carboxymethylcellulose (CMC)): 147 and 173 % of control
- T/C (dose: 44.4 mg/kg/injection, schedule: Q01DX001 (ip), vehicle: carboxymethylcellulose (CMC)): 133 % of control
- T/C (dose: 50.0 mg/kg/injection, schedule: Q01DX001 (ip), vehicle: carboxymethylcellulose (CMC)): 129 % of control (2×)
- T/C (dose: 60.0 mg/kg/injection, schedule: Q01DX009 (ip), vehicle: carboxymethylcellulose (CMC)): 118 and 127 % of control
- T/C (dose: 66.6 mg/kg/injection, schedule: Q01DX001 (ip), vehicle: carboxymethylcellulose (CMC)): 139 % of control
- T/C (dose: 100.0 mg/kg/injection, schedule: Q01DX001 (ip), vehicle: carboxymethylcellulose (CMC), evaluated on day 30): 139 and 188 % of control
- survivor count [1]: 3 of 6
- T/C (dose: 100.0 mg/kg/injection, schedule: Q01DX001 (ip), vehicle: carboxymethylcellulose (CMC), run until all animals had died): 160 % of control
- survivor count (dose: 120.0 mg/kg/injection, schedule: Q01DX009 (ip), vehicle: carboxymethylcellulose (CMC)): 1 of 6 and 3 of 6
- survivor count (dose: 150.0 mg/kg/injection, schedule: Q01DX001 (ip), vehicle: carboxymethylcellulose (CMC)): 3 of 6
- survivor count [2]: 0 of 6, 1 of 6, 2 of 4
- survivor count [3]: 0 of 6 (2×)

Structure (SMILES): O=P1(c2ccccc2)NC2CC(C(F)(F)F)CCC2S1 (stereo not drawn)
- T/C (dose: 100.0 mg/kg/injection, schedule: Q04DX002 (ip), vehicle: saline with Tween-80): 99 % of control
- T/C (dose: 200.0 mg/kg/injection, schedule: Q04DX002 (ip), vehicle: saline with Tween-80): 92 % of control
- T/C (dose: 400.0 mg/kg/injection, schedule: Q04DX002 (ip), vehicle: saline with Tween-80): 92 % of control

Structure (SMILES): CN(/N=C\c1ccc(N(CCBr)CCBr)cc1)C(=N)N
- T/C (dose: 0.7 mg/kg/injection, schedule: Q01DX015 (ip), vehicle: carboxymethylcellulose (CMC)): 98 % of control
- T/C (dose: 1.25 mg/kg/injection, schedule: Q01DX015 (ip), vehicle: carboxymethylcellulose (CMC)): 112 % of control
- T/C (dose: 2.5 mg/kg/injection, schedule: Q01DX015 (ip), vehicle: carboxymethylcellulose (CMC)): 105 % of control
- T/C (dose: 5.0 mg/kg/injection, schedule: Q01DX015 (ip), vehicle: carboxymethylcellulose (CMC)): 107 % of control
- T/C (dose: 10.0 mg/kg/injection, schedule: Q01DX015 (ip), vehicle: carboxymethylcellulose (CMC)): 115 % of control
- T/C [1]: 106 % of control
- T/C [2]: 100 % of control
- T/C [3]: 114 % of control

Structure (SMILES): CC(C)SC(OC(=O)COc1ccc(Cl)cc1)C(Cl)(Cl)Cl (stereo not drawn)
- T/C (dose: 25.0 mg/kg/injection, schedule: Q01DX009 (ip), vehicle: other): 103 % of control
- T/C (dose: 50.0 mg/kg/injection, schedule: Q01DX009 (ip), vehicle: other): 97 % of control
- T/C (dose: 100.0 mg/kg/injection, schedule: Q01DX009 (ip), vehicle: other): 101 [5 of 6 alive] and 102 % of control [5 of 6 alive]
- T/C (dose: 100.0 mg/kg/injection, schedule: Q04DX003 (ip), vehicle: other): 102 % of control
- T/C (dose: 200.0 mg/kg/injection, schedule: Q01DX009 (ip), vehicle: other): 95 % of control
- T/C (dose: 200.0 mg/kg/injection, schedule: Q04DX003 (ip), vehicle: other): 102 % of control
- survivor count (dose: 400.0 mg/kg/injection, schedule: Q01DX009 (ip), vehicle: other): 3 of 6
- T/C (dose: 400.0 mg/kg/injection, schedule: Q04DX003 (ip), vehicle: other): 94 % of control

Structure (SMILES): NC(=O)c1cc(Cl)ccc1N=NN(CCCl)CCCl
- T/C (dose: 75.0 mg/kg/injection, schedule: Q04DX003 (ip), vehicle: saline with Tween-80): 101 % of control
- T/C (dose: 150.0 mg/kg/injection, schedule: Q04DX003 (ip), vehicle: saline with Tween-80): 101 % of control
- T/C (dose: 300.0 mg/kg/injection, schedule: Q04DX003 (ip), vehicle: saline with Tween-80): 105 % of control

From PubChem BioAssay AID248 (DTP/NCI, 2004)
